Reference: paper PMC11157491, “Novel Alaninamide Derivatives with Drug-like Potential for Development as Antiseizure and Antinociceptive Therapies—In Vitro and In Vivo Characterization” (ACS Chemical Neuroscience, 2024)
Where two headings read alike, the source gives them in different places.

Experiments:
mice [1] = assay: Maximal electroshock (MES) seizure test; assay type: in vivo; settings: TD50 chimney test / ED50 MES
Text: (§1) Identification and profiling of new ASM candidate compounds are still largely based on predictive animal models of seizures/epilepsy, while a range of in silico and in vitro approaches (i.e., molecular modeling or high throughput screening, etc.) are increasingly used in the early stages of ASM discovery.[31] The Epilepsy Therapy Screening Program (ETSP) of the National Institute of Neurological Disorders and Stroke (NIH, Bethesda, MD) has enabled the discovery of several approved ASMs by focusing on the in vivo testing of compounds synthesized by both academic laboratories and industry.[32] The ETSP provides a broad panel of seizure tests (ca. 30 rodent models), but a subset of them is used for the initial screening of new compounds with potential antiseizure activity. The routinely used seizure models include: (i) the MES test, which is an experimental model of tonic–clonic seizures, (ii) the 6 Hz model (32 mA) of focal seizures, and (iii) the scPTZ model of generalized absence or myoclonic seizures.[33],[34] Consequently, in the current studies, all final compounds 21–36 and 45–48 were initially studied in the MES and the 6 Hz (32 mA) seizure models after intraperitoneal (i.p.) administration at a screening dose of 100 mg/kg in mice at a time point of 0.5 h (the screening group consisted of four mice, and the results obtained are summarized in Table S1).
(§2) These parameters were then used to calculate the protective indexes (PIs, PI = TD50/ED50), which describe the therapeutics window of potential drug candidates. The ED50, TD50, and PI values for the tested compounds together with data of their chemical prototypes KA-11 and KJ-5 and reference ASMs are summarized in Table 2.
(§3) The adult male Albino Swiss mice weighed between 22 and 26 g were used in the in vivo studies. They were housed under standardized housing conditions in colony cages and had free access to food as well as tap water. The animals were left to adapt under laboratory conditions for 7 days. All procedures involving animals and their care were performed in accordance with the current European Community and Polish legislation on animal experimentation.
(§4) In the initial screening studies, four mice per group were randomly assigned to each experimental group (each mouse was used only once). To evaluate the ED50 or TD50 values, four groups consisting of eight animals were injected with various doses of tested compounds. The protective indexes (PIs) for the compounds investigated and reference ASMs were calculated by dividing the TD50 value, as determined in the chimney test, by the respective ED50 value, as determined in the MES, scPTZ, or 6 Hz (32 or 44 mA) tests (PI = TD50/ED50). The PIs are a measure of the potential therapeutic window of the tested agent.
(§5) All substances were suspended in Tween 80 (1% aqueous solution) and administered i.p. as a single injection at a dose of 10 mL/kg. On each day of experimentation, fresh solutions were prepared. The detailed in vivo procedures are described elsewhere: the maximal electroshock seizure test (MES),[60] the subcutaneous pentylenetetrazole seizure test (scPTZ),[61] the 6 Hz psychomotor seizure model (32 and 44 mA),[62] and the chimney test.[63] The reference ASMs were purchased from commercial suppliers: VPA (Sigma-Aldrich, St. Louis, MO), LCS, and LEV (UCB Pharma, Braine l’Alleud, Belgium).

mice [2] = assay: 6 Hz (32 mA) psychomotor seizure model; assay type: in vivo; settings: TD50 chimney test / ED50 6 Hz (32 mA)
Text: as §1, §2, §3, §4, §5

mice [3] = assay: 6 Hz (44 mA) model of pharmacoresistant seizures; assay type: in vivo; settings: for PI (TD50/ED50) 6 Hz (44 mA): TD50 chimney test / ED50 6 Hz (44 mA)
Procedure: Based on the promising pharmacological data for 26 and 28, and especially potent protection in the 6 Hz (32 mA) seizure model, both compounds were tested subsequently in the 6 Hz seizure model, applying a higher current intensity of 44 mA (Table 3). Importantly, this test is recognized as one of the key animal models of pharmacoresistant seizures, utilized in the early stage of new ASMs’ development.
as §4, §5

mice [4] = settings: cited from earlier work
mice [5] = settings: cited from earlier work; remark: listed apart in the source
mice [6] = settings: cited from earlier work; remark: listed apart in the source

Q: Which “PI (TD50/ED50) MES” value (mice [1]) does the source give for `CC(=O)NC(C)C(=O)N1CCN(c2cccc(Cl)c2)CC1` (stereo not drawn) [Compound 22, N-(1-(4-(3-Chlorophenyl)piperazin-1-yl)-1-oxopropan-2-yl)acetamide] here?
A: The value was 1.7.

Q: And the “PI (TD50/ED50) 6 Hz (32 mA)” value (mice [2])?
A: Its value is 2.8.

Q: With `CC(=O)NC(C)C(=O)N1CCN(c2ccc(Cl)c(Cl)c2)CC1` (stereo not drawn) [Compound 24, N-(1-(4-(3,4-Dichlorophenyl)piperazin-1-yl)-1-oxopropan-2-yl)acetamide] as the compound, how does the “PI (TD50/ED50) 6 Hz (32 mA)” value (mice [2]) read?
A: The value was 3.4 (6 Hz).

Q: For `CC(=O)NC(C)C(=O)N1CCN(c2cc(Cl)cc(Cl)c2)CC1` (stereo not drawn) [Compound 25, N-(1-(4-(3,5-Dichlorophenyl)piperazin-1-yl)-1-oxopropan-2-yl)acetamide], which “PI (TD50/ED50) MES” value (mice [1]) is on record?
A: The value was 3.8.

Q: And the “PI (TD50/ED50) 6 Hz (32 mA)” value (mice [2])?
A: Its value is 3.6.

Q: With `CC(=O)NC(C)C(=O)N1CCN(c2cccc(C(F)(F)F)c2)CC1` (stereo not drawn) [Compound 26, N-(1-oxo-1-(4-(3-(Trifluoromethyl)phenyl)piperazin-1-yl)propan-2-yl)acetamide] as the compound, how does the “PI (TD50/ED50) 6 Hz (44 mA)” value (mice [3]) read?
A: Its value is 5.8.

Q: What about the “effectiveness relative to KJ-5 in the 6 Hz (44 mA) test” value (mice [3]; more effective than KJ-5) of the same compound?
A: Its value is > 2 fold.

Q: And the “PI (TD50/ED50) MES” value (mice [1])?
A: Its value is 2.7.

Q: And the “PI (TD50/ED50) 6 Hz (32 mA)” value (mice [2])?
A: The value was 11.0.

Q: With `CC(=O)NC(C)C(=O)N1CCN(c2cccc(OC(F)(F)F)c2)CC1` (stereo not drawn) [Compound 28, N-(1-oxo-1-(4-(3-(Trifluoromethoxy)phenyl)piperazin-1-yl)propan-2-yl)acetamide] as the compound, how does the “PI (TD50/ED50) 6 Hz (44 mA)” value (mice [3]) read?
A: Its value is 3.4.

Q: What about the “PI (TD50/ED50) MES” value (mice [1]) of the same compound?
A: Its value is 2.8.

Q: And the “PI (TD50/ED50) 6 Hz (32 mA)” value (mice [2])?
A: Its value is 8.2.

Q: What does the source list for `CC(=O)NC(C)C(=O)N1CCN(c2cccc(Oc3ccccc3)c2)CC1` (stereo not drawn) [Compound 29, N-(1-oxo-1-(4-(3-Phenoxyphenyl)piperazin-1-yl)propan-2-yl)acetamide]?
A: PI (TD50/ED50) MES (mice [1]): 2.7; PI (TD50/ED50) 6 Hz (32 mA) (mice [2]): 2.6

Q: What does the source list for `CC(=O)NC(C)C(=O)N1CCN(c2cccc(SC(F)(F)F)c2)CC1` (stereo not drawn) [Compound 30, N-(1-oxo-1-(4-(3-((Trifluoromethyl)thio)phenyl)piperazin-1-yl)propan-2-yl)acetamide]?
A: PI (TD50/ED50) MES (mice [1]): 3.0; PI (TD50/ED50) 6 Hz (32 mA) (mice [2]): 3.4

Q: For `CC(C(=O)N1CCN(c2cccc(C(F)(F)F)c2)CC1)N1C(=O)CCC1=O` (stereo not drawn) [KA-11], which “PI (TD50/ED50) 6 Hz (32 mA)” value (mice [4]; TD50 chimney test) is on record?
A: Its value is > 71.4.

Q: What about the “PI (TD50/ED50) MES” value (mice [5]; TD50 chimney test) of the same compound?
A: Its value is > 17.0.

Q: What does the source list for `CC(=O)NC(C(=O)N1CCN(c2cccc(C(F)(F)F)c2)CC1)c1ccccc1` (stereo not drawn) [KJ-5]?
A: PI (TD50/ED50) 6 Hz (32 mA) (mice [4]; TD50 chimney test): 6.0; PI (TD50/ED50) MES (mice [5]; TD50 chimney test): 2.0; PI (TD50/ED50) 6 Hz (44 mA) (mice [6]; TD50 chimney test): 2.6

Q: What does the source list for `COC[C@@H](NC(C)=O)C(=O)NCc1ccccc1` [LCS, lacosamide]?
A: PI (TD50/ED50) 6 Hz (32 mA) (mice [4]; TD50 rotarod test): 8.8; PI (TD50/ED50) MES (mice [5]; TD50 rotarod test): 5.0; PI (TD50/ED50) 6 Hz (44 mA) (mice [6]; TD50 rotarod test): 6.7

Q: Which “PI (TD50/ED50) 6 Hz (32 mA)” value (mice [4]; TD50 rotarod test) does the source give for `CCCC(CCC)C(=O)O` [VPA, valproic acid, reference compound] here?
A: The value was 3.3.

Q: What about the “PI (TD50/ED50) MES” value (mice [5]; TD50 rotarod test) of the same compound?
A: Its value is 1.7.

Q: And the “PI (TD50/ED50) 6 Hz (44 mA)” value (mice [6]; TD50 rotarod test)?
A: Its value is 2.3.
